Results taken from paper PMC4588680.
Results are given in words; binding and its absence hold for the method and conditions named. In cells and extracts the contact can be indirect. Some entries that bind do so weakly or less than the wild type.

Protein sequences, listed by entry. Tags and fused reporters are not part of them.
UniProt P05556: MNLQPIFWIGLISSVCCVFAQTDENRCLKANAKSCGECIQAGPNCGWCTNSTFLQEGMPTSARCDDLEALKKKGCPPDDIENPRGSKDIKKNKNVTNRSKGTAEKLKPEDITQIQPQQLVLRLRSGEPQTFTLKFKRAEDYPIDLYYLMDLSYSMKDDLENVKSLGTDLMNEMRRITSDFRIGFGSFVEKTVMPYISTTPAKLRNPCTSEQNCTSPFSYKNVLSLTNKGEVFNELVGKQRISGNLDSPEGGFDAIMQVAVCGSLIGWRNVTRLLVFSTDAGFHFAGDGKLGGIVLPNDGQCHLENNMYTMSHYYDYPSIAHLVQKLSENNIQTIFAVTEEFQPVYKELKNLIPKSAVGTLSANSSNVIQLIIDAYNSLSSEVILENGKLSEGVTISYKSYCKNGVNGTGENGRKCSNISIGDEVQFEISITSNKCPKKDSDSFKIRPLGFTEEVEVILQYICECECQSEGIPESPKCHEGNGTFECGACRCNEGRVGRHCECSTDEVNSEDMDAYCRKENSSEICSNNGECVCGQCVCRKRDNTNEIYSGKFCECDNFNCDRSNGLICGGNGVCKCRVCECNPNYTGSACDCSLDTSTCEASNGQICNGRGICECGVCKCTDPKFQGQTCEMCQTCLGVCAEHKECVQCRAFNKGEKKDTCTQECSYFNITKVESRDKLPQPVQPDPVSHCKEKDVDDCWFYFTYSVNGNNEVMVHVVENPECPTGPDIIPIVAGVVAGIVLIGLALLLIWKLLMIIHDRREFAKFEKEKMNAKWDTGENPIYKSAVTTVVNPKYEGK
UniProt Q05397: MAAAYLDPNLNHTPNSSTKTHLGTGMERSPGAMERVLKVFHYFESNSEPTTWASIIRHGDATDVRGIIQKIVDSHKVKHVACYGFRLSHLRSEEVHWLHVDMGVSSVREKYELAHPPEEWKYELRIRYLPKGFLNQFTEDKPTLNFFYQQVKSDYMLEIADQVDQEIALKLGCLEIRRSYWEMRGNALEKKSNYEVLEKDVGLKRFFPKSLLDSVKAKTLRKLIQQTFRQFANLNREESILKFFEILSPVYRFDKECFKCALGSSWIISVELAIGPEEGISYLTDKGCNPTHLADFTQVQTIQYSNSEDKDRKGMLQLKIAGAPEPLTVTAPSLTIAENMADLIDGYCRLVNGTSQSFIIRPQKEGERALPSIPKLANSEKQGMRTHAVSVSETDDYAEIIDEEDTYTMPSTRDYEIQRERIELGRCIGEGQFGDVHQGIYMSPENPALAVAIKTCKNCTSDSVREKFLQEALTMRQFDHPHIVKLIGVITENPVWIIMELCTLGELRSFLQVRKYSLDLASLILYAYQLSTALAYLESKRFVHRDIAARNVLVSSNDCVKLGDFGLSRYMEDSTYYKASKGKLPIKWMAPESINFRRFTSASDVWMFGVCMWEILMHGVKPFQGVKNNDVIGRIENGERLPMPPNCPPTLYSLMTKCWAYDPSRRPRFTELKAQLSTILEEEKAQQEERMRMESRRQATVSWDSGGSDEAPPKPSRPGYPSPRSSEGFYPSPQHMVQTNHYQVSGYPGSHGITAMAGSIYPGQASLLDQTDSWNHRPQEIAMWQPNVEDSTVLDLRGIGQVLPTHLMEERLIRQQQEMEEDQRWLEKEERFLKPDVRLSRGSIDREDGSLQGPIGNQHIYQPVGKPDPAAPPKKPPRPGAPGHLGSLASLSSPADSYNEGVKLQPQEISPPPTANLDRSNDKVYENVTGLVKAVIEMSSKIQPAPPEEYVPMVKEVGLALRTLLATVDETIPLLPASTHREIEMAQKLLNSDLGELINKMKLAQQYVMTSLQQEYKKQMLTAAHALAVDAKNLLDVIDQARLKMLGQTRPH

Experiments:
[1] = biological target: β1-integrin subunit (human (endogenous in BM-MSC)) (UniProt P05556); experiment: co-IP; anti-integrin β1 antibody (JB1A) on precleared RIPA lysates (100 μg proteins) of BM-MSC adherent on type I dermal collagen or cellular fibronectin, treated or not with 50 ng/ml PDGF-AB for 1, 3 or 18 hours; overnight at 4 °C; blotted for β1 integrin and uPAR (399R); isotypic control IgG
[2] = biological target: urokinase-type plasminogen activator receptor (human (endogenous in BM-MSC)) (UniProt Q03405); experiment: co-IP; anti-uPAR antibody (IID7, 2 μg) on precleared RIPA lysates (100 μg proteins) of BM-MSC adherent on type I dermal collagen, treated or not with 50 ng/ml PDGF-AB for 1 hour; overnight at 4 °C; blotted for uPAR (399R) and P-FAK; isotypic control IgG

| binding [1] | binding [2] | Substance |
| --- | --- | --- |
| binds |  | urokinase-type plasminogen activator receptor (from UniProt Q03405 23-305) |
|  | binds | autophosphorylated focal adhesion tyrosine kinase (from UniProt Q05397 1-1052) (enzyme) |
